Consider one compound from US5196515A, “Thiolactone bifunctional chelating agents for diagnostic and therapeutic products” (The Johns Hopkins University, priority 1991, dated 1993).

The data set is described as follows: Tc-99m labeling of the thiolactone BCA-benzylamine adduct (DADT-BzA).

`CN(CCN(CC(=O)NCc1ccccc1)CC(C)(C)S)CC(C)(C)S` [DADT-BzA, 2,2,4,9,9-Pentamethyl 4,7-diaza-7-[benzylamidomethyl]-1,10-[bis-p-methoxybenzyl]-1,10-dithiadecane]: under “exchange labeling, HPLC”, the “contaminating colloidal TcO2” value is given as “no evidence of contaminating colloidal TcO2”. In addition, the “efficiency of labeling with Tc-99m (exchange)” value (ligand concentrations of 10^-4 M) is on record as “greater than 90%”.
